# Laboratory results as given in PubChem BioAssay AID504834 (National Center for Advancing Translational Sciences (NCATS), 2011).
# In all, about 320,000 compounds went through this assay and about 22,000 (6.9%) were called active. This list was built around the results that the source calls inconclusive (neither active nor inactive); the mix of calls is not that of the screen. Calls come from the whole dose curve; as a rule, active = well fitted inhibition curve with a large enough effect; inconclusive = small, poorly fitted or top-dose-only effect, or another doubt; inactive = no such curve, though single readings can be large or run the other way. A potency beside an inconclusive call is a rough fit, not a confirmed value.
# Test: Primary qHTS for delayed death inhibitors of the malarial parasite plastid, 96 hour incubation
# Conditions: P. falciparum luciferase reporter growth; series mostly up to 28.7 µM; activity change, negative = inhibition: at the top concentration
# How it was run: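 Erythrocytes infected with luciferase-expressing P. falciparum were dispensed at 2% hematocrit and 0.05% parasitemia (final), then incubated with compounds 96 hours at 37 C in 5% CO2. Luminescence after detection reagent addition reported growth.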
# % is set by controls: 0 for no effect and ±100 for the full control effect; potency is the fitted concentration of half-maximal effect.
Structure (SMILES),Potency,"activity change, negative = inhibition"
CCn1c(C)c(C)c2cc(C(=O)N3CCN(c4cccc(C)c4C)CC3)ccc21,"inconclusive: 11.7 µM [inhibitor, partial curve]",
COc1cccc(NC(=O)COc2ccc(C(=S)N3CCN(C)CC3)cc2OC)c1,"inconclusive: 4.65 µM [inhibitor, partial curve, poor fit]",
CCN(CC(=O)Nc1ccc(NC(C)=O)cc1)C(=O)CCCc1c[nH]c2ccccc12,"inconclusive: 18.5 µM [inhibitor, single point]",
O=C(NCCC1CCCCN1S(=O)(=O)c1ccc(F)cc1)C(=O)NC1CC1 (centres undefined),,inactive: -4.85%
COc1cccc(NC(=S)N(CCc2nc3cc(C)c(C)cc3[nH]2)Cc2cccnc2)c1,active: 11.7 µM,
COc1cccc(CNC(=O)C2CCN(C(=O)N(C)C)CC2)c1,"inconclusive: 0.828 µM [inhibitor, full curve]",
O=C(CSc1nccn(-c2ccc(Br)cc2)c1=O)NC1CCCC1,"inconclusive: 10.4 µM [inhibitor, single point]",
COc1ccc2nc(N3CCCC3)c(C#N)cc2c1,active: 8.28 µM,
Cc1cc(SCc2ccccc2Cl)nc(=O)[nH]1,,inactive: -21.7%
Cc1ccc(S(=O)(=O)N2CCN(C(=O)C3CCN(C(=O)c4ccc(F)cc4)CC3)CC2)c(C)c1,"inconclusive: 5.22 µM [inhibitor, partial curve]",
CCO/C=N/Nc1nc(C(F)(F)F)nc2c1cnn2Cc1ccccc1,"inconclusive: 10.4 µM [inhibitor, single point]",
CCC1(C)Cc2c(sc3nc(NC)n(C)c(=O)c23)CO1 (centres undefined),"inconclusive: 10.4 µM [inhibitor, single point]",
CC(=O)Nc1ccc(NC(=O)Nc2ccc3c(c2)N(C)C(=O)CS3)cc1,,inactive: -20%
CCN(CC)c1ccc(S(=O)(=O)N2CCCCC2)cc1NC(=O)CN1C(=O)NC2(CCCC2)C1=O,"inconclusive: 14.7 µM [inhibitor, partial curve, poor fit]",
Cc1ccsc1/C=N/n1c(-c2ccccc2)n[nH]c1=S,"inconclusive: 4.15 µM [inhibitor, partial curve, poor fit]",
C=C(C)C(=O)Nc1cccc(C2=NOC3(C2)C[C@@H](C(N)=O)N(C(=O)/C(C)=C/C)C3)c1 (some centres undefined),,inactive: 26.4%
CCOC(=O)c1ccc(NC(=O)NNS(=O)(=O)c2cc(OC)ccc2OC)cc1,active: 5.22 µM,
CN(C)C(CNC(=O)c1ccc(NS(=O)(=O)c2cccc([N+](=O)[O-])c2)cc1)c1ccco1 (centres undefined),"inconclusive: 0.0208 µM [inhibitor, full curve, poor fit]",
Cc1cccc(N2CC(C(=O)NCCC3=CCCCC3)CC2=O)c1C (centres undefined),"inconclusive: 8.28 µM [inhibitor, partial curve]",
CCC/C(=N\NC(=O)c1ccccc1C)c1ccccc1,,inactive: 18.9%
CC(=O)Nc1cccc(NC(=O)CCNC(=O)c2ccccc2)c1,,inactive: 9.25%
C(=N\n1cnnc1)/c1ccccc1OCCOc1ccccc1,"inconclusive: 13.1 µM [inhibitor, single point]",
CCOC(=O)c1nonc1NC(C)=O,,inactive: 15.2%

Structure (SMILES),Potency,"activity change, negative = inhibition"
Cn1c(SCC(=O)Nc2ncc(C(F)(F)F)cc2Cl)nnc1-c1ccc(Cl)cc1,,inactive: 1.05%
CCOC(=O)C1=C(C)Nc2ccccc2N=C1NC(=O)C(c1ccccc1)c1ccccc1,"inconclusive: 14.7 µM [inhibitor, partial curve, poor fit]",
O=C(CSc1nnc(Nc2ccccc2)s1)NCCN1C(=O)CSC1=O,"inconclusive: 2.33 µM [inhibitor, partial curve, poor fit]",
CCCCNC(=S)N(C)/N=C/c1sc(N2CCCCC2)nc1-c1cccs1,active: 11.7 µM,
O=c1oc2ccc(Cl)cc2nc1/C=C(\O)c1ccco1,active: 14.7 µM,
Cc1ccc(-c2cc(C(F)F)n3ncc(C(=O)N4CCCCC4c4cccnc4)c3n2)cc1 (centres undefined),active: 4.15 µM,
CN(CC(=O)NC(c1ccccc1)c1ccccc1)Cc1nc2ccccc2c(=O)[nH]1,"inconclusive: 14.7 µM [inhibitor, partial curve, poor fit]",
CC(C)(CC(=O)O)CC(=O)NCc1c(Cl)cccc1Oc1ccccc1,,inactive: 53.5%
CC(C)C(c1nnnn1CC1CCCO1)N1CCN(C2CCCC2)CC1 (centres undefined),active: 13.1 µM,
Cc1[nH]n(-c2ccccc2)c(=O)c1C1(C(F)(F)F)C(=O)N(c2ccccc2)C2=C1C(=O)CC(C)(C)C2 (centres undefined),"inconclusive: 13.1 µM [inhibitor, partial curve, poor fit]",
COc1ccc(S(=O)(=O)N2CCN(C(=O)c3c(-c4ccccc4)noc3C)CC2)cc1,"inconclusive: 0.0185 µM [inhibitor, full curve, poor fit]",
O=C(O)c1ccccc1NS(=O)(=O)c1cccc(-n2sc3ccccc3c2=O)c1,"inconclusive: 11.7 µM [inhibitor, single point]",
N#C/C(=C/c1ccc(N2CCCCC2)o1)c1cccc(F)c1,"inconclusive: 14.7 µM [inhibitor, single point]",
C=CCN(c1ccccc1)S(=O)(=O)c1cccc(C(=O)Nc2ccncc2)c1,"inconclusive: 1.85 µM [inhibitor, single point]",
O=CN/N=C/c1c(O)ccc2ccccc12,"inconclusive: 18.5 µM [inhibitor, single point]",
COc1ccc(N=C2S/C(=C\c3cc(C)n(C)c3C)C(=O)N2C)cc1,active: 9.28 µM,
Cc1nc(SCC(N)=O)[nH]c(=O)c1Cc1ccc(OC(C)C)cc1,active: 1.65 µM,
CCOC(=O)CSc1nc(N)nc(C)c1Br,"inconclusive: 11.7 µM [inhibitor, single point]",
COc1cc([C@H]2c3c(cc(OC)c(O)c3OC)C[C@@H](CO)[C@@H]2CO[C@@H]2O[C@H](CO)[C@@H](O)[C@H](O)[C@H]2O)cc(OC)c1O,,inactive: 46.4%
Cc1[nH]c(=O)[nH]c(=O)c1S(=O)(=O)N1CCCC(C(=O)NCc2ccco2)C1 (centres undefined),"inconclusive: 0.262 µM [inhibitor, partial curve, poor fit]",
CCC(C)N1CCN(C(=O)C2CCN(S(=O)(=O)c3c(C)noc3/C=C/c3ccco3)CC2)CC1 (centres undefined),,inactive: 46%
CCc1ccc(/C=C2/SC(=S)N(CCC(=O)Nc3cccnc3)C2=O)cc1,"inconclusive: 18.5 µM [inhibitor, single point]",
CC12CCC(C(=O)N(Cc3ccccc3)Cc3ccccc3)(OC1=O)C2(C)C (centres undefined),"inconclusive: 9.28 µM [inhibitor, single point]",

Structure (SMILES),Potency,"activity change, negative = inhibition"
Nc1ccc2nc(SCC(=O)c3ccccc3)sc2c1,"inconclusive: 13.1 µM [inhibitor, single point]",
Cc1ccc(C(O)c2nccn2C)o1 (centres undefined),,inactive: 17.3%
COc1ccc(NC(=O)c2ccc(Br)c(S(=O)(=O)N3CCOCC3)c2)cc1,,inactive: 0%
CC1(NC(=O)c2ccccc2)CCN(CCc2cccs2)C1=O (centres undefined),"inconclusive: 5.86 µM [inhibitor, single point]",
CCN(CC)C(=S)SCC(=O)Nc1nc(=O)c2ccccc2s1,,inactive: 54.8%
COc1ccc(NC(=O)NNC(=O)c2cc(C3CC3)nc3ccccc23)c(OC)c1,"inconclusive: 18.5 µM [inhibitor, single point]",
O=C(O)c1ccc(CN2C(=O)c3ccc(Oc4ccc([N+](=O)[O-])cc4)cc3C2=O)cc1,"inconclusive: 14.7 µM [inhibitor, single point]",
COc1cc(CN(C)Cc2cc(=O)oc3cc(C)c(Cl)cc23)ccc1OC(F)F,"inconclusive: 14.7 µM [inhibitor, single point]",
CC(C)Cn1cnc2c1c(=O)n(CC(=O)N(C)C)c(=O)n2Cc1ccccc1,"inconclusive: 3.7 µM [inhibitor, partial curve]",
CCN(C(=O)COC(=O)C1CCN(S(=O)(=O)c2c(Cl)cccc2Cl)CC1)C1CCCCC1,"inconclusive: 18.5 µM [inhibitor, single point]",
CCc1ccc(C2=Nn3c(nnc3-c3cccs3)SC2)cc1,active: 1.85 µM,
CN(C)S(=O)(=O)c1ccc(C(=O)NCCS(=O)(=O)N2CCN(c3ccc(F)cc3)CC2)cc1,,inactive: 7.3%
Cc1ccc(C2=NS(=O)(=O)N(C)C(C(=O)N3CCOCC3)=C2)cc1,"inconclusive: 0.233 µM [inhibitor, full curve]",
Cc1cnc(C(=O)NC2CC(C)(C)Cc3c2cnn3-c2cccc(F)c2)cn1 (centres undefined),"inconclusive: 5.22 µM [inhibitor, partial curve]",
O=C(NCCC1=CCCCC1)C1CCN(c2nnc(-n3cccc3)s2)CC1,"inconclusive: 11.7 µM [inhibitor, single point]",
CC(=O)Nc1ccccc1OCc1nnc(-c2cccs2)o1,,inactive: 1.94%
CCN(CC(=O)Nc1c(F)cccc1F)C(=O)CCc1nc2cc(S(=O)(=O)N(C)C)ccc2n1CC,"inconclusive: 5.22 µM [inhibitor, partial curve]",
CNC1=C(N(C(C)=O)c2ccc(Br)cc2)C(=O)c2ccccc2C1=O,active: 0.0294 µM,
COc1cc(OC)cc(C(=O)N[C@H](C(=O)Nc2nc3c(s2)CCCC3)C(C)C)c1,"inconclusive: 18.5 µM [inhibitor, single point]",
O=[N+]([O-])c1cc(CN2CCN(c3cccc(C(F)(F)F)c3)CC2)c2cccnc2c1O,"inconclusive: 10.4 µM [inhibitor, single point]",
CCOC(=O)C1=C(C)NC(=O)NC1c1ccc(-c2ccc(F)cc2)o1 (centres undefined),,inactive: -9.99%
CC(C)CC(=O)Nc1ccc2nn(-c3ccccc3)nc2c1,,inactive: 50.8%
O=S(=O)(c1cc(C(F)(F)F)ccc1Cl)N1CCN(c2ncnc3ccccc23)CC1,"inconclusive: 18.5 µM [inhibitor, single point]",
